{"source": "patent US20210107993A1", "about": "“CARTYRIN COMPOSITIONS AND METHODS FOR USE” (Poseida Therapeutics, Inc., priority 2018, published 2021)", "system": "Pan T cells", "assay": "CSR surface expression and cellular activation (FSC-A, CD69), flow cytometry", "format": "cell-based, human", "settings": "10 μg mRNA electroporation, two days later", "data": [{"molecule": "CD2z CSR: chimeric stimulatory receptor: wild type CD2 and CD3z intracellular stimulation domain, SEQ ID NO: 17912 (protein) MSFPCKFVASFLLIFNVSSKGAVSKEITNALETWGALGQDINLDIPSFQMSDDIDDIKWEKTSDKKKIAQFRKEKETFKEKDTYKLFKNGTLKIKHLKTDDQDIYKVSIYDTKGKNVLEKIFDLKIQERVSKPKISWTCINTTLTCEVMNGTDPELNLYQDGKHLKLSQRVITHKWTTSLSAKFKCTAGNKVSKESSVEPVSCPEKGLDIYLIIGICGGGSLLMVFVALLVFYITKRKKQRSRRNDEELETRAHRVATEERGRKPHQIPASTPQNPATSQHPPPPPGHRSQAPSHRPPPPGHRVQHQPQKRPPAPSGTQVHQQKGPPLPRPRVQPKPPHGAAENSLSPSSNRVKFSRSADAPAYKQGQNQLYNELNLGRREEYDVLDKRRGRDPEMGGKPRRKNPQEGLYNELQKDKMAEAYSEIGMKGERRRGKGHDGLYQGLSTATKDTYDALHMQALPPR", "values": [{"measurement": "surface expression of CSR", "result": "Increased surface expression"}]}]}
